No constants are given. Whether binding was seen depends on the method and setting. Binding seen in cells or lysates may run through a third protein. Some binding calls cover weakened binding; strength is not graded here.

By UniProt entry, the sequences of proteins in these tests, tags left out.
UniProt P03372: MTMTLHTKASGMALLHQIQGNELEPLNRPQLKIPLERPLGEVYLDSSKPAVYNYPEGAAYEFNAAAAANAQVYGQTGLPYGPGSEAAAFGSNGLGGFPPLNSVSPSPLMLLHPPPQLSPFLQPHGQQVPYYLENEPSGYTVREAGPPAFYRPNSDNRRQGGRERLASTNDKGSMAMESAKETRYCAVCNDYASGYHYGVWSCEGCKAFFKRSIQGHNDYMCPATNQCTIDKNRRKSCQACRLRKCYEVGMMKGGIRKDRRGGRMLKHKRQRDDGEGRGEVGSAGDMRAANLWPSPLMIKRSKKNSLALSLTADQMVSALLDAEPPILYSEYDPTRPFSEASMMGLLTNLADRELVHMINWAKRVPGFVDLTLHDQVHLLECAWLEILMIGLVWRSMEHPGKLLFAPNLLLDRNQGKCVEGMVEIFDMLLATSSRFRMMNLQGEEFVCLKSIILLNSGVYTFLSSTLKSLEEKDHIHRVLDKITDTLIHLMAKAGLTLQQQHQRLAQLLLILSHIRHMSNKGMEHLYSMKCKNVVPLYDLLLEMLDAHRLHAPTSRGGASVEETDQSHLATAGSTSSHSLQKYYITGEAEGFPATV

In experiment [1] the target is T1, SHARPIN (Shank-Interacting protein-like 1, SIPL1) (human (endogenous in MCF-7)) (UniProt Q9H0F6).
T1 sequence: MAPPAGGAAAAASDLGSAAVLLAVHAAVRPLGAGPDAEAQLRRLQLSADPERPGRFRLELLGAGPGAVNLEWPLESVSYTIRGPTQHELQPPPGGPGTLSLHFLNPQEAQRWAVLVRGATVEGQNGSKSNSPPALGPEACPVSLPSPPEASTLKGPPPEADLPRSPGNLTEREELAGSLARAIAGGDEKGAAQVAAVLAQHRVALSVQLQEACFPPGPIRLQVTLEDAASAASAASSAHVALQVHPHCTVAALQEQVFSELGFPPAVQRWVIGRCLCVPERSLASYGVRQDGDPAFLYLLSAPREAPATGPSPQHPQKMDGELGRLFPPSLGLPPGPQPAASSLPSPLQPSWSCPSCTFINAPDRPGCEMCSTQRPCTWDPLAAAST
In words: co-IP; MCF7 cell lysate (100 ug) pre-cleared with rabbit IgG, incubated with SHARPIN antibody (AB69507) overnight; rabbit IgG as negative control; bound protein analysed with ERα antibody.

The target of experiment [2] is T1, SHARPIN (Shank-Interacting protein-like 1, SIPL1) (human (endogenous in MCF-7)). In words: co-IP; cytoplasmic and nuclear fractions (subcellular protein fractionation kit, Thermo Scientific 78840); Vinculin and Histone-3 as fraction controls.

For the substance “Estrogen receptor α (from UniProt P03372 1-595)”, the binding entry in experiment [1] and in experiment [2] was “binds” in each case.

The values are drawn from article PMC5652769.
